Laboratory results: PubChem BioAssay AID1508597 (Cure First, 2020)

Assay: 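Genes whose silencing sensitises or protects ovarian cancer cells against rucaparib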 (primary screen)
Cells: human ovarian carcinoma lines grown from tumours: OCI-P5x (papillary serous) and OCI-C5x (clear cell)
Reagents: siRNA pool against human genes, 1.25 pmol siRNA per well
Timing: 72 h or 96 h, depending on the cell culture
Treatment: rucaparib 20 µM (about IC30) or vehicle, present until read-out
Rucaparib or vehicle: Vehicle
Cell line: OCI-P5x (serous)
Measurement: 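Luminescent ATP-based viability assay read 72 or 96 h after transfection, depending on culture, given as normalised percent viability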
Scale: viability, normalised: higher = more viable cells remaining
Active means: 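a well counts as a hit if its normalised viability is under 80 percent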
Meaning of the calls: active = viability under 80%; inactive = viability 80% or more
Shown is a random part of the about 2,100 reagents, under one of the conditions tested. 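Calls flag viability under 80% in either arm, not effects specific to rucaparib; the reference for percent is not stated.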 A number with no mark means an inactive call. Some reagents were tested in more than one well and are listed for each. Reagent sequences are not shown. Not given: the 100% reference.

| target gene | technical replicate | viability, normalised (%) |
| --- | --- | --- |
| FANCL | 1 | 54.7 (active) |
| FANCL | 2 | 55.5 (active) |
| FANCL | 3 | 56 (active) |
| L3MBTL3 | 1 | 58.1 (active) |
| L3MBTL3 | 2 | 68.3 (active) |
| L3MBTL3 | 3 | 73.2 (active) |
| RPS9 | 1 | 45.2 (active) |
| RPS9 | 2 | 43.5 (active) |
| RPS9 | 3 | 64.6 (active) |
| DHX9 | 1 | 50.4 (active) |
| DHX9 | 1 | 40 (active) |
| DHX9 | 2 | 74.3 (active) |
| DHX9 | 2 | 43.1 (active) |
| DHX9 | 3 | 48.9 (active) |
| DHX9 | 3 | 67.7 (active) |
| PRKCG | 1 | 79.6 (active) |
| PRKCG | 2 | 82.7 |
| PRKCG | 3 | 86.2 |
| SLC16A9 | 1 | 71.8 (active) |
| SLC16A9 | 2 | 64 (active) |
| SLC16A9 | 3 | 95.3 |
| DDX51 | 1 | 35.6 (active) |
| DDX51 | 2 | 48 (active) |
| DDX51 | 3 | 50.7 (active) |
| GATAD2A | 1 | 79.5 (active) |
| GATAD2A | 2 | 83.1 |
| GATAD2A | 3 | 86.7 |
| EPHA5 | 1 | 106 |
| EPHA5 | 2 | 76.6 (active) |
| EPHA5 | 3 | 102 |
| CAMK2A | 1 | 88.2 |
| CAMK2A | 2 | 64 (active) |
| CAMK2A | 3 | 96.7 |
| MLLT6 | 1 | 70.9 (active) |
| MLLT6 | 2 | 74 (active) |
| MLLT6 | 3 | 83.5 |
| ACHE | 1 | 53.8 (active) |
| ACHE | 2 | 50.7 (active) |
| ACHE | 3 | 42.4 (active) |
| ASH1L | 1 | 71.3 (active) |
| ASH1L | 2 | 65.6 (active) |
| ASH1L | 3 | 75.1 (active) |
| GUK1 | 1 | 62.7 (active) |
| GUK1 | 2 | 57.9 (active) |
| GUK1 | 3 | 63.7 (active) |
| PLCD3 | 1 | 78.4 (active) |
| PLCD3 | 2 | 75 (active) |
| PLCD3 | 3 | 90.2 |
| ARL8A | 1 | 34.6 (active) |
| ARL8A | 2 | 52.3 (active) |
| ARL8A | 3 | 31.5 (active) |
| COASY | 1 | 75.4 (active) |
| COASY | 2 | 62.6 (active) |
| COASY | 3 | 52.7 (active) |
| PKN2 | 1 | 46.1 (active) |
| PKN2 | 2 | 64.9 (active) |
| PKN2 | 3 | 61.3 (active) |
| CDCA8 | 1 | 68.6 (active) |
| CDCA8 | 2 | 65.1 (active) |
| CDCA8 | 3 | 73.3 (active) |
| TESK2 | 1 | 71.9 (active) |
| TESK2 | 2 | 91.2 |
| TESK2 | 3 | 58.6 (active) |
| DDX17 | 1 | 94.6 |
| DDX17 | 1 | 78.3 (active) |
| DDX17 | 2 | 89.9 |
| DDX17 | 2 | 70.8 (active) |
| DDX17 | 3 | 83.4 |
| DDX17 | 3 | 95.9 |
| PIP4K2C | 1 | 67.6 (active) |
| PIP4K2C | 2 | 65.2 (active) |
| PIP4K2C | 3 | 75.9 (active) |
| TNK2 | 1 | 67 (active) |
| TNK2 | 2 | 76.8 (active) |
| TNK2 | 3 | 79.4 (active) |

6 entries already listed, arranged by “viability, normalised (%)”, descending.
| target gene | technical replicate | viability, normalised (%) |
| --- | --- | --- |
| L3MBTL3 | 3 | 73.2 (active) |
| L3MBTL3 | 2 | 68.3 (active) |
| RPS9 | 3 | 64.6 (active) |
| L3MBTL3 | 1 | 58.1 (active) |
| RPS9 | 1 | 45.2 (active) |
| RPS9 | 2 | 43.5 (active) |
